# Results: the supplement of paper PMC8728848
# This is one part of the list.
# Assays:
# Test in all cases: glycan array binding signal (z-score within array); higher = stronger binding
# Conditions in all cases: glycan notation: IUPAC condensed, linker removed
# [1] = biological target: Gal(a1-3)Gal(b1-3)GlcNAc
# How it was run: (§1)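 Columns mapping to the same glycan were averaged after glycan names were converted to IUPAC-condensed notation. The data come from 3228 arrays in the Consortium for Functional Glycomics database, limited to those with an available protein sequence. Binding is reported as a within-array Z-score averaged across arrays of one protein sequence and across linkers.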
# [2] = biological target: Gal(a1-3)Gal(b1-3)GlcNAc(b1-2)Man
# How it was run: as §1
# [3] = biological target: Gal(a1-3)Gal(b1-3)GlcNAc(b1-2)Man(a1-3)[Gal(a1-3)Gal(b1-3)GlcNAc(b1-2)Man(a1-6)]Man(b1-4)GlcNAc(b1-4)GlcNAc
# How it was run: as §1
# [4] = biological target: Gal(a1-3)Gal(b1-3)GlcNAc(b1-3)GalNAc
# How it was run: as §1
# [5] = biological target: Gal(a1-3)Gal(b1-3)GlcNAc(b1-6)GalNAc
# How it was run: as §1
# [6] = biological target: Gal(a1-3)Gal(b1-3)[Fuc(a1-4)]GlcNAc(b1-2)Man(a1-3)[Gal(a1-3)Gal(b1-3)[Fuc(a1-4)]GlcNAc(b1-2)Man(a1-6)]Man(b1-4)GlcNAc(b1-4)GlcNAc
# How it was run: as §1
# [7] = biological target: Gal(a1-3)Gal(b1-4)Glc
# How it was run: as §1
# [8] = biological target: Gal(a1-3)Gal(b1-4)GlcNAc
# How it was run: as §1
# [9] = biological target: Gal(a1-3)Gal(b1-4)GlcNAc(b1-2)Man
# How it was run: as §1
# [10] = biological target: Gal(a1-3)Gal(b1-4)GlcNAc(b1-2)Man(a1-3)[Gal(a1-3)Gal(b1-4)GlcNAc(b1-2)Man(a1-6)]Man(b1-4)GlcNAc(b1-4)GlcNAc
# How it was run: as §1
# [11] = biological target: Gal(a1-3)Gal(b1-4)GlcNAc(b1-3)GalNAc
# How it was run: as §1
# [12] = biological target: Gal(a1-3)Gal(b1-4)GlcNAc(b1-6)GalNAc
# How it was run: as §1
# [13] = biological target: Gal(a1-3)Gal(b1-4)[Fuc(a1-3)]GlcNAc
# How it was run: as §1
# [14] = biological target: Gal(a1-3)Gal(b1-4)[Fuc(a1-3)]GlcNAc(b1-2)Man(a1-3)[Gal(a1-3)Gal(b1-4)[Fuc(a1-3)]GlcNAc(b1-2)Man(a1-6)]Man(b1-4)GlcNAc(b1-4)GlcNAc
# How it was run: as §1
# [15] = biological target: Gal(a1-3)GalNAc
# How it was run: as §1
# [16] = biological target: Gal(a1-3)[Gal(a1-4)]Gal(b1-4)GlcNAc
# How it was run: as §1
# [17] = biological target: Gal(a1-4)Gal(b1-3)GlcNAc(b1-2)Man(a1-3)[Gal(a1-4)Gal(b1-3)GlcNAc(b1-2)Man(a1-6)]Man(b1-4)GlcNAc(b1-4)GlcNAc
# How it was run: as §1
# [18] = biological target: Gal(a1-4)Gal(b1-4)Glc
# How it was run: as §1
# [19] = biological target: Gal(a1-4)Gal(b1-4)GlcNAc
# How it was run: as §1
# [20] = biological target: Gal(a1-4)Gal(b1-4)GlcNAc(b1-2)Man(a1-3)[Gal(a1-4)Gal(b1-4)GlcNAc(b1-2)Man(a1-6)]Man(b1-4)GlcNAc(b1-4)GlcNAc
# How it was run: as §1
# [21] = biological target: Gal(a1-4)Gal(b1-4)GlcNAc(b1-3)Gal(b1-4)Glc
# How it was run: as §1
# [22] = biological target: Gal(a1-4)GlcNAc
# How it was run: as §1
# [23] = biological target: Gal(a1-6)Glc
# How it was run: as §1
# [24] = biological target: Gal(b1-2)Gal
# How it was run: as §1
# [25] = biological target: Gal(b1-3)Gal
# How it was run: as §1
# [26] = biological target: Gal(b1-3)Gal(b1-4)GlcNAc
# How it was run: as §1
# [27] = biological target: Gal(b1-3)GalNAc
# How it was run: as §1
# [28] = biological target: Gal(b1-3)GalNAc(a1-3)[Fuc(a1-2)]Gal(b1-4)Glc
# How it was run: as §1
# [29] = biological target: Gal(b1-3)GalNAc(a1-3)[Fuc(a1-2)]Gal(b1-4)GlcNAc
# How it was run: as §1
# [30] = biological target: Gal(b1-3)GalNAc(b1-3)Gal
# How it was run: as §1
# [31] = biological target: Gal(b1-3)GalNAc(b1-3)Gal(a1-4)Gal(b1-4)Glc
# How it was run: as §1
# [32] = biological target: Gal(b1-3)GalNAc(b1-4)Gal(b1-4)Glc
# How it was run: as §1
# [33] = biological target: Gal(b1-3)GalNAc(b1-4)[Neu5Ac(a2-3)]Gal(b1-4)Glc
# How it was run: as §1
# [34] = biological target: Gal(b1-3)GlcNAc
# How it was run: as §1
# [35] = biological target: Gal(b1-3)GlcNAc(a1-3)Gal(b1-4)GlcNAc
# How it was run: as §1
# [36] = biological target: Gal(b1-3)GlcNAc(a1-6)Gal(b1-4)GlcNAc
# How it was run: as §1
# [37] = biological target: Gal(b1-3)GlcNAc(b1-2)Man
# How it was run: as §1
# [38] = biological target: Gal(b1-3)GlcNAc(b1-2)Man(a1-3)[Gal(b1-3)GlcNAc(b1-2)Man(a1-6)]Man(b1-4)GlcNAc(b1-4)GlcNAc
# How it was run: as §1
binder,measurement,setting,value
"Protein L(B1-B4) (Finegoldia magna), Q51912 (protein) KEETPETPETDSEEEVTIKANLIFANGSTQTAEFKGTFEKATSEAYAYADTLKKDNGEYTVDVADKGYTLNIKFAGKEKTPEEPKEEVTIKANLIYADGKTQTAEFKGTFEEATAEAYRYADALKKDNGEYTVDVADKGYTLNIKFAGKEKTPEEPKEEVTIKANLIYADGKTQTAEFKGTFEEATAEAYRYADLLAKENGKYTVDVADKGYTLNIKFAGKEKTPEEPKEEVTIKANLIYADGKTQTAEFKGTFAEATAEAYRYADLLAKENGKYTADLEDGGYTINIRFAG",glycan array binding signal (z-score),[1],-0.054
same,glycan array binding signal (z-score),[2],-0.707
same,glycan array binding signal (z-score),[3],1.28
same,glycan array binding signal (z-score),[4],1.35
same,glycan array binding signal (z-score),[5],0.514
same,glycan array binding signal (z-score),[6],1.97
same,glycan array binding signal (z-score),[7],0.278
same,glycan array binding signal (z-score),[8],-1.07
same,glycan array binding signal (z-score),[9],-0.04
same,glycan array binding signal (z-score),[10],0.412
same,glycan array binding signal (z-score),[11],-0.678
same,glycan array binding signal (z-score),[12],-0.013
same,glycan array binding signal (z-score),[13],-0.181
same,glycan array binding signal (z-score),[14],0.79
same,glycan array binding signal (z-score),[15],0.36
same,glycan array binding signal (z-score),[16],1.1
same,glycan array binding signal (z-score),[17],-0.513
same,glycan array binding signal (z-score),[18],0.674
same,glycan array binding signal (z-score),[19],-0.873
same,glycan array binding signal (z-score),[20],0.203
same,glycan array binding signal (z-score),[21],-0.798
same,glycan array binding signal (z-score),[22],-0.414
same,glycan array binding signal (z-score),[23],-0.568
same,glycan array binding signal (z-score),[24],-0.466
same,glycan array binding signal (z-score),[25],-1.04
same,glycan array binding signal (z-score),[26],-0.353
same,glycan array binding signal (z-score),[27],-0.452
same,glycan array binding signal (z-score),[28],0.326
same,glycan array binding signal (z-score),[29],-0.393
same,glycan array binding signal (z-score),[30],-0.68
same,glycan array binding signal (z-score),[31],0.334
same,glycan array binding signal (z-score),[32],-0.763
same,glycan array binding signal (z-score),[33],-0.055
same,glycan array binding signal (z-score),[34],-0.372
same,glycan array binding signal (z-score),[35],-0.126
same,glycan array binding signal (z-score),[36],-0.886
same,glycan array binding signal (z-score),[37],0.578
same,glycan array binding signal (z-score),[38],1.35

# Retrieved one by one from above (three):
binder,measurement,setting,value
"Protein L(B1-B4) (Finegoldia magna), Q51912 (protein) KEETPETPETDSEEEVTIKANLIFANGSTQTAEFKGTFEKATSEAYAYADTLKKDNGEYTVDVADKGYTLNIKFAGKEKTPEEPKEEVTIKANLIYADGKTQTAEFKGTFEEATAEAYRYADALKKDNGEYTVDVADKGYTLNIKFAGKEKTPEEPKEEVTIKANLIYADGKTQTAEFKGTFEEATAEAYRYADLLAKENGKYTVDVADKGYTLNIKFAGKEKTPEEPKEEVTIKANLIYADGKTQTAEFKGTFAEATAEAYRYADLLAKENGKYTADLEDGGYTINIRFAG",glycan array binding signal (z-score),[30],-0.68
same,glycan array binding signal (z-score),[34],-0.372
same,glycan array binding signal (z-score),[9],-0.04
